From PubChem BioAssay record AID1918967 (NCATS, 2023).

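H1112 multiple myeloma cell line, survival measured by ATP-driven luminescence after 48 hours of compound exposure. Compounds were titrated over 25 concentrations from roughly 3.1e-05 µM up to 92 µM. The number is the fitted AC50 potency for loss of viability; lower values mean stronger cytotoxic potency. Calls follow NCATS curve-class scoring: actives score 40 to 100, inconclusives score 1 to 39, and inactives (curve class 4) score 0.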

Values are in µM. All entries here are filed as inconclusive. Only part of the assay is shown, chiefly results filed as inconclusive. Potencies fitted to partial, single-point or poorly fitting curves are rough. Some entries filed as inconclusive have a full curve. Activity scores are not listed here.

SMILES,fitted potency (µM),curve
C[C@]12CC[C@H](O)CC1=CC[C@H]1[C@H]3CCC(=O)[C@@]3(C)CC[C@@H]12,9.35,"cytotoxic, partial curve, poor fit"
Cc1c(Cn2c(C)nc3c(C(=O)O)cc(N4CCOCC4)cc32)cccc1C(F)(F)F,2.349,"cytotoxic, full curve"
O=C(Nc1ccc(F)c(C(F)(F)F)c1)Nc1nnc(-c2ccncc2)s1,20.93,"cytotoxic, partial curve"
Cc1ccnc2c1NC(=O)c1cccnc1N2C1CC1,33.17,"cytotoxic, single point"
CCOc1ccc(Cc2cc([C@@H]3O[C@H](CO)[C@@H](O)[C@H](O)[C@@H]3O)ccc2Cl)cc1,9.35,"cytotoxic, partial curve"
CCCNC(=O)[C@H]1O[C@H]1C(=O)N[C@H](C(=O)N1CCC[C@@H]1C(=O)OC)C(C)CC (stereo partly drawn),33.17,"cytotoxic, single point"
O=c1ccn([C@@H]2O[C@H](CO)[C@H](O)[C@@H]2F)c(=O)[nH]1,7.427,"cytotoxic, single point"
CC[C@@H](C)[C@H](NC(=O)[C@H](CC1CCCCC1)NC(=O)c1ccno1)C(=O)N1CCC2(CCc3ccccc32)CC1,11.77,"cytotoxic, partial curve, poor fit"
COc1cc(Nc2ncc(F)c(Nc3ccc4c(n3)NC(=O)C(C)(C)O4)n2)cc(OC)c1OC,5.899,"cytotoxic, partial curve"
Nc1nc(NCCNc2ncc(-n3ccnc3)c(-c3ccc(Cl)cc3Cl)n2)ccc1[N+](=O)[O-],16.63,"cytotoxic, partial curve, poor fit"
NC(=O)Nc1sc(-c2ccc(F)cc2)cc1C(N)=O,0.5258,"cytotoxic, full curve"

For reference, 2 entries once more:

SMILES	fitted potency (µM)	curve
O=C(Nc1ccc(F)c(C(F)(F)F)c1)Nc1nnc(-c2ccncc2)s1	20.93	cytotoxic, partial curve
C[C@]12CC[C@H](O)CC1=CC[C@H]1[C@H]3CCC(=O)[C@@]3(C)CC[C@@H]12	9.35	cytotoxic, partial curve, poor fit